Measured values taken from US20250235500A1, “NEW POLYPEPTIDE FOR PROMOTING TISSUE REPAIR, AND USE THEREOF” (Jinan University, priority 2021, published 2025).
At least one peptide structure holds a part that was inferred or is arguable (an end, a ring closure or a residue). Bridge positions count the residues as written; N and C are the ends. Peptide text beside a SMILES is read from it.

Assays:
[1] = tested on: stress-induced gastric ulcer in rats; assay: Protective effect on stress-induced gastric ulcer in rats (restraint water-immersion); format: in vivo, SD rats; settings: for Ulcer inde: 7 days, Guth standard, model group 75.1 ± 13.8
Method: Test Method: 20 male SD rats weighing 180-210 g (purchased from Guangdong Medical Experimental Animal Center) were randomly divided into five groups: a blank group, a model group, a sucralfate group (1 g/kg, a positive drug group), a low-dose TRF7 group (12.5 mg/kg), and a high-dose TRF7 group (50.0 mg/kg). The treatment groups were subjected to intragastric administration for 7 consecutive days. 24 h before modeling, the rats were subjected to ambrosia but fed with water. Except for the control group, modeling was performed by using a restraint water-immersion method, the rats in each group were fixed on a rat board, the rats with heads up were vertically immersed in a thermostatic water tank of (20° C.) for 8 h, and a water surface was flush with xiphoids of the rats. After stress modeling was finished, the rats were euthanized through cervical dislocation, and then laparotomized, and pylorus ligation was performed. 2 mL of a formaldehyde solution of 10% by volume fraction was injected into stomach, cardias were ligated, and gastric bodies were taken out to be fixed in the formaldehyde solution for 15 min. The rats were cut open along greater curvatures of the stomach, rinsed with the normal saline, and then unfolded, damage to gastric mucosa was observed, and a gastric ulcer index was calculated. Calculating the ulcer index (UI) according to a Guth standard: punctate hemorrhage was scored as 1 point, linear hemorrhage with a length of <1 mm was scored as 2 points, linear hemorrhage with a length of 1-2 mm was scored as 3 points, linear hemorrhage with a length of 2-4 mm was scored as 4 points, linear hemorrhage with a length of >4 mm was scored as 5 points, and linear hemorrhage with a width of >1 mm was scored double points.

skin wounds in mice = assay: Repair effect on skin wounds in mice; format: in vivo, Kunming mice; settings: for Healing rate (%) Day 3 / Healing rate (%) Day 5 / Healing rate (%) Day 10: skin wound, 0.1 mL twice daily
skin scalds in mice = assay: Repair effect on skin scalds in mice; format: in vivo, Kunming mice; settings: for Healing rate (%) Day 3 / Healing rate (%) Day 5 / Healing rate (%) Day 10: skin scald, 0.1 mL
oral ulcers in rats = assay: Protective effect on oral ulcers in rats (phenol calcination); format: in vivo, SD rats; settings: for Oral ulcer healing integral value Before administration: baseline before administration; for Oral ulcer healing integral value Day 1 / Oral ulcer healing integral value Day 3 / Oral ulcer healing integral value Day 5: 0.1 mL twice a day

Q: How did the Ulcer inde ([1]; TRF7 12.5 mg/kg intragastric) turn out when `CC(C)C[C@H](NC(=O)[C@@H]1CCCN1C(=O)[C@H](C)NC(=O)[C@H](Cc1ccc(O)cc1)NC(=O)[C@H](CO)NC(=O)CNC(=O)[C@@H]1CSSC[C@H](NC(=O)[C@H](C)N)C(=O)N2CCC[C@H]2C(=O)N[C@@H](CC(N)=O)C(=O)N[C@@H](Cc2ccc(O)cc2)C(=O)N2CCC[C@H]2C(=O)N[C@@H](Cc2ccc(O)cc2)C(=O)N1)C(=O)NCC(=O)N[C@@H](Cc1ccc(O)cc1)C(=O)N[C@@H](Cc1c[nH]cn1)C(=O)N[C@H](C(=O)N[C@@H](CCCNC(=N)N)C(=O)N[C@@H](CCC(=O)O)C(=O)N[C@@H](Cc1ccc(O)cc1)C(=O)N1CCC[C@H]1C(=O)N[C@@H](C)C(=O)NCC(=O)N[C@H](C(=O)N[C@@H](CO)C(=O)N[C@@H](C)C(=O)N[C@@H](C)C(=O)O)C(C)C)C(C)C` [TRF7] (H-ACPNYPYCGSYAPLGYHVREYPAGVSAA-OH; disulfide 2-8) was run?
A: 28.1 ± 6.9

Q: And the Ulcer inde ([1]; TRF7 50.0 mg/kg intragastric)?
A: 22.2 ± 6.5

Q: And the “protective effect on stress-induced gastric ulcers in rats (in words)” value ([1]; vs model group, superior to sucralfate)?
A: significant protective effect on stress-induced gastric ulcers in rats

Q: And the “Healing rate (%) Day 3” value (skin wounds in mice; TRF7 0.5 mg/mL)?
A: 22.3 ± 2.8 %

Q: And the “Healing rate (%) Day 5” value (skin wounds in mice; TRF7 0.5 mg/mL)?
A: 46.8 ± 5.2 %

Q: What about the “Healing rate (%) Day 10” value (skin wounds in mice; TRF7 0.5 mg/mL) of the same molecule?
A: 82.1 ± 6.3 %

Q: And the “Healing rate (%) Day 3” value (skin wounds in mice; TRF7 2.0 mg/mL)?
A: 25.2 ± 2.6 %

Q: What about the “Healing rate (%) Day 5” value (skin wounds in mice; TRF7 2.0 mg/mL) of the same molecule?
A: 50.1 ± 5.9 %

Q: And the “Healing rate (%) Day 10” value (skin wounds in mice; TRF7 2.0 mg/mL)?
A: 86.0 ± 7.7 %

Q: What about the “healing of skin wounds in mice (in words)” value (skin wounds in mice; vs control group, better than Kangfuxin Liquid) of the same molecule?
A: significantly promote the healing of skin wounds in mice

Q: What about the “Healing rate (%) Day 3” value (skin scalds in mice; TRF7 0.5 mg/mL) of the same molecule?
A: 20.5 ± 3.9 %

Q: What about the “Healing rate (%) Day 5” value (skin scalds in mice; TRF7 0.5 mg/mL) of the same molecule?
A: 38.1 ± 4.9 %

Q: And the “Healing rate (%) Day 10” value (skin scalds in mice; TRF7 0.5 mg/mL)?
A: 76.0 ± 8.7 %

Q: What about the “Healing rate (%) Day 3” value (skin scalds in mice; TRF7 2.0 mg/mL) of the same molecule?
A: 23.9 ± 4.1 %

Q: And the “Healing rate (%) Day 5” value (skin scalds in mice; TRF7 2.0 mg/mL)?
A: 43.4 ± 5.1 %

Q: What about the “Healing rate (%) Day 10” value (skin scalds in mice; TRF7 2.0 mg/mL) of the same molecule?
A: 81.5 ± 8.9 %

Q: What about the “healing of skin scalds in mice (in words)” value (skin scalds in mice; vs control group, more effective than Kangfuxin Liquid) of the same molecule?
A: significantly promote the healing of skin scalds in mice

Q: What about the “Oral ulcer healing integral value Before administration” value (oral ulcers in rats; TRF7 0.5 mg/mL group) of the same molecule?
A: 4.8 ± 0.4

Q: What about the “Oral ulcer healing integral value Day 1” value (oral ulcers in rats; TRF7 0.5 mg/mL) of the same molecule?
A: 3.2 ± 0.5

Q: And the “Oral ulcer healing integral value Day 3” value (oral ulcers in rats; TRF7 0.5 mg/mL)?
A: 2.8 ± 0.5

Q: What about the “Oral ulcer healing integral value Day 5” value (oral ulcers in rats; TRF7 0.5 mg/mL) of the same molecule?
A: 1.6 ± 0.4

Q: And the “Oral ulcer healing integral value Before administration” value (oral ulcers in rats; TRF7 2.0 mg/mL group)?
A: 4.7 ± 0.3

Q: What about the “Oral ulcer healing integral value Day 1” value (oral ulcers in rats; TRF7 2.0 mg/mL) of the same molecule?
A: 3.3 ± 0.6

Q: What about the “Oral ulcer healing integral value Day 3” value (oral ulcers in rats; TRF7 2.0 mg/mL) of the same molecule?
A: 2.8 ± 0.5

Q: And the “Oral ulcer healing integral value Day 5” value (oral ulcers in rats; TRF7 2.0 mg/mL)?
A: 1.3 ± 0.3

Q: What about the “healing of oral ulcers in rats (in words)” value (oral ulcers in rats; vs model group, more effective than Kangfuxin Liquid) of the same molecule?
A: significantly promote the healing of oral ulcers
